Experimental data taken from patent US20130230533A1.
Results are given in words; binding and its absence hold for the method and conditions named. Some entries that bind do so weakly or less than the wild type.

Columns and labels:
Experiment in all cases: SPR (Biacore), 25 C and 37 C
[1] = molecular target: Dimeric monkey CD48-mFc (monkey)
[2] = molecular target: Monomeric monkey CD48-mmH (monkey)
[3] = molecular target: Monomeric human CD48-mmH (human)
[4] = molecular target: Dimeric human CD48-mFc (human)

Measured: binding

B1: H4H1707N (antibody, human IgG4, V domains shown)
VH: EGQLLESGGGLAQPGGSLRLSCAASGITFGRYAMSWVRQAPGKGLEWVSLISGSGGSTYHADSVKGRFTISRDNSKNTLYLQMNSLRAEDTAVYYCAIYNNYNWFDPWGQGTLVTVSS
VL: EIVLTQSPGTLSLSPGERATLSCRASQSVSSNYLAWYQQKPGQAPRLLIYDASSRATDIPDRFSGSGSGTDFTLTISRLEPEDFAVYYCQQYGSSPRTFGQGTKVEIK
binds: all assays above

B2: H4H1713N (antibody, human IgG4, V domains shown)
VH: QVQLVQSGAEVKKPGASVKVSCKASGHTFTNYYIHWVRQAPGQGLEWMGITNPNDGNTRYAQKFQGRISMTWDTSTSTVFMELSSLKSEDTAVYYCAGLRYWFFDLWGRGTPVTVSS
VL: DIQMTQSPSSVSASVGDRVTITCRASQDISSWLAWYQQKPGKAPNLLIFAASSLQSGVPSRFSGSGSGTDFTLTISSLQPEDFGTYYCQQTDNFPRTFGQGTKVEIN
binds: all assays above

B3: H4H1763N (antibody, human IgG4, V domains shown)
VH: QIQLVQSGAEMKRPGTSVKVSCKASGYTFTSYGINWVRQAPGQGLEWMGWISAYNGDTNYAQKLQGRVTMTTDTSTTTAYMEVRSLRSDDTAVYYCARFLTGTKDYYYGMDVWGQGTTVTVSS
VL: DIQMTQSPSSLSASVGDRVTITCQASQDISNFLNWYQQKPGKAPDLLINDASILETGVPSRFSGSGSGTDFTLTINNLQPEDIATYYCQQYDNLPLTFGGGTKVEIK
binds: [1] | [2] | [3]
